In the supplement of paper PMC10849652:
The list shows a part of the results.

The chains behind the UniProt entries cited, without tags or fusion partners. Where a name states a change or a piece, a line headed by the entry shows the natural chain unless it says otherwise.
UniProt Q9H633: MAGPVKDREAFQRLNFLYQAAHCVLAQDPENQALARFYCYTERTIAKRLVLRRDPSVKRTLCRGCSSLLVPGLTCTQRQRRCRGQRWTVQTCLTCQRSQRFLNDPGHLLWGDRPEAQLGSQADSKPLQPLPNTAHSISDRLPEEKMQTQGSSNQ
UniProt Q15287: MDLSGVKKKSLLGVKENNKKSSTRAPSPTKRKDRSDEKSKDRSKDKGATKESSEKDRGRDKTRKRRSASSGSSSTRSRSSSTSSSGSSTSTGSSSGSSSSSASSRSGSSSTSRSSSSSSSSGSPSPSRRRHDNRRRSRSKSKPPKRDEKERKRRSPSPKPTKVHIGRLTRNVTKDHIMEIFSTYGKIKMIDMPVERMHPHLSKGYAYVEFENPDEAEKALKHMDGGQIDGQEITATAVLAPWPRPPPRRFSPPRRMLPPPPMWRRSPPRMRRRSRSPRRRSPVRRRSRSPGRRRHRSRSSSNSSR
UniProt Q5VZM2, whole entry, looked up: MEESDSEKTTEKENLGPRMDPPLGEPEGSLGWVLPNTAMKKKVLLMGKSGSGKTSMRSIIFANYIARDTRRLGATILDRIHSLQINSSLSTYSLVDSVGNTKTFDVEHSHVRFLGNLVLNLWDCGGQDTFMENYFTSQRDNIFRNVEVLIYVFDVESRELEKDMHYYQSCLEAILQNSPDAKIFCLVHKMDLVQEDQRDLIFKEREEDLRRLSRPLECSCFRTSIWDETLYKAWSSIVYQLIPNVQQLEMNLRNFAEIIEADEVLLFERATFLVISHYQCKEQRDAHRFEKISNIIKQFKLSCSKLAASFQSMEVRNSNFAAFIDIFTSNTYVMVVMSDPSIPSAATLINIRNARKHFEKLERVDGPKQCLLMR
UniProt Q9UBF6, whole entry, looked up: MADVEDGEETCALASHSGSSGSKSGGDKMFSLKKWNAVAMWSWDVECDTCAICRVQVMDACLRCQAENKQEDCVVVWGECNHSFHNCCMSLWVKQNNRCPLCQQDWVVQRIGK
UniProt P04843: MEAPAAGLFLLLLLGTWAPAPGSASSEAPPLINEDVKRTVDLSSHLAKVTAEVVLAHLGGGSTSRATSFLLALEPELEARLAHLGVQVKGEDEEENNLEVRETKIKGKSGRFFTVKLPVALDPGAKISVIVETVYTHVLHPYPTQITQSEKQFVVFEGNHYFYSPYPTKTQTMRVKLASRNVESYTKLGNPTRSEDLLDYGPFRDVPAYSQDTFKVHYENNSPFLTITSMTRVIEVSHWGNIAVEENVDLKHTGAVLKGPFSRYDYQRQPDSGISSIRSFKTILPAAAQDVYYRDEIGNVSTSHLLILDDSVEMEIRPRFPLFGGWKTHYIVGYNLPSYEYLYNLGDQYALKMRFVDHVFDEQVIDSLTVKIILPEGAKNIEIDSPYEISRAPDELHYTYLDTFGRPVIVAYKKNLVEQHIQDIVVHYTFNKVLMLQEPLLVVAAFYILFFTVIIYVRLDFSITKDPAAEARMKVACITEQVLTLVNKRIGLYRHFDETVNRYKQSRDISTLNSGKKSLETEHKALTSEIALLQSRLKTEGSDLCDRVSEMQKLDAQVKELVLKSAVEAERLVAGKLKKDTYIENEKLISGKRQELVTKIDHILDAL
UniProt P05387, whole entry, looked up: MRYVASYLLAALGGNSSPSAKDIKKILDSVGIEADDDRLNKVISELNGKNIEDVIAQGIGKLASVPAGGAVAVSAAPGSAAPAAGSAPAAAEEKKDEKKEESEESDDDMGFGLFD
UniProt Q8N122, whole entry, looked up: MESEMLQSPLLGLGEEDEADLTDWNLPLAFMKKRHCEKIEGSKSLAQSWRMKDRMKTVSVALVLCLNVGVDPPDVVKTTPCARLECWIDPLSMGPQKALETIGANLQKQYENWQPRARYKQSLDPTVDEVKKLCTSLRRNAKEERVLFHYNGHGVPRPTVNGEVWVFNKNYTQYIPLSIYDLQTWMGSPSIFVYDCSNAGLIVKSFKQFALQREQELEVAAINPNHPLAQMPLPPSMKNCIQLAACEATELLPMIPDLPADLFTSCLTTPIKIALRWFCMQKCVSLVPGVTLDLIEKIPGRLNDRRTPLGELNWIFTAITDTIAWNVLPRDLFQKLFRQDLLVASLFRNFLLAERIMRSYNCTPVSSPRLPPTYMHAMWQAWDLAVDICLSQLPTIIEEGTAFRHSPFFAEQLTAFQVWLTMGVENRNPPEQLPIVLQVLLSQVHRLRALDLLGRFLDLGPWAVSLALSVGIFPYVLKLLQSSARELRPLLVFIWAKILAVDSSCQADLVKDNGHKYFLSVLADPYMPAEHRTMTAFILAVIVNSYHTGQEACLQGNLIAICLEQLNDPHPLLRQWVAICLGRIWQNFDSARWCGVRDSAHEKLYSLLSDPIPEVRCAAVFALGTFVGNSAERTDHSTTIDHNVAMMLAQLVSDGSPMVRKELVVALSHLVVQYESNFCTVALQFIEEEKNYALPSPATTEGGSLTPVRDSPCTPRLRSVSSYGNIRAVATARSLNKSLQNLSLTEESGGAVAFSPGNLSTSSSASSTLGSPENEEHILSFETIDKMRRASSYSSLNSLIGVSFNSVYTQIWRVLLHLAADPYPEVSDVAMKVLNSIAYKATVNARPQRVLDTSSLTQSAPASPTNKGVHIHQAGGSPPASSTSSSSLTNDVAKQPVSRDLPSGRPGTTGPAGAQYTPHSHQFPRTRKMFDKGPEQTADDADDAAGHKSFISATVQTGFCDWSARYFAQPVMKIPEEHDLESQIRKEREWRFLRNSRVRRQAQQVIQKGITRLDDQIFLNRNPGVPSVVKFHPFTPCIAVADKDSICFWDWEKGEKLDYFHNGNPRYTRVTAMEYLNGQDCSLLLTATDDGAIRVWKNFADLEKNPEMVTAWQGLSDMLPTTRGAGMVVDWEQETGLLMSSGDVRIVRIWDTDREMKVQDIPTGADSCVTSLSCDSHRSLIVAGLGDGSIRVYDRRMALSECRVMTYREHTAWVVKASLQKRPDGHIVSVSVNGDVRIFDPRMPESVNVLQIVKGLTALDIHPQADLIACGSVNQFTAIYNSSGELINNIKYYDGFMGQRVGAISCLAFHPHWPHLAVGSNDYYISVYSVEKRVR
UniProt P27694, whole entry, looked up: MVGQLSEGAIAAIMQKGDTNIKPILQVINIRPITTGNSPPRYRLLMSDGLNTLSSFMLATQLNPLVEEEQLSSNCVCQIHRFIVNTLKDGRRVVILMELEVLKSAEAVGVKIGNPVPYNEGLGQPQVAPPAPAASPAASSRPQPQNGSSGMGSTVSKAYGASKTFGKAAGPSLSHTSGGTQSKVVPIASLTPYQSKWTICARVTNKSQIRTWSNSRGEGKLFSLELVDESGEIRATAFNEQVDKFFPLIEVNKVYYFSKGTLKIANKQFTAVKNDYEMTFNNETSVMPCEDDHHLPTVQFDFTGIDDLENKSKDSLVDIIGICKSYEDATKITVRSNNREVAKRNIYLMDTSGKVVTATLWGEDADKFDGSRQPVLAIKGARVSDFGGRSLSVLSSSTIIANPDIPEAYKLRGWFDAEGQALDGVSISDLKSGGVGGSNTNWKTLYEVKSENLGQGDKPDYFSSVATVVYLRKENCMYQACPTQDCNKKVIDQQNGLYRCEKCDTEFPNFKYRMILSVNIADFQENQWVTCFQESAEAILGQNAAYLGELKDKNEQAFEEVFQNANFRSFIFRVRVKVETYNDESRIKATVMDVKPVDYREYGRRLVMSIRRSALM
UniProt Q15418, whole entry, looked up: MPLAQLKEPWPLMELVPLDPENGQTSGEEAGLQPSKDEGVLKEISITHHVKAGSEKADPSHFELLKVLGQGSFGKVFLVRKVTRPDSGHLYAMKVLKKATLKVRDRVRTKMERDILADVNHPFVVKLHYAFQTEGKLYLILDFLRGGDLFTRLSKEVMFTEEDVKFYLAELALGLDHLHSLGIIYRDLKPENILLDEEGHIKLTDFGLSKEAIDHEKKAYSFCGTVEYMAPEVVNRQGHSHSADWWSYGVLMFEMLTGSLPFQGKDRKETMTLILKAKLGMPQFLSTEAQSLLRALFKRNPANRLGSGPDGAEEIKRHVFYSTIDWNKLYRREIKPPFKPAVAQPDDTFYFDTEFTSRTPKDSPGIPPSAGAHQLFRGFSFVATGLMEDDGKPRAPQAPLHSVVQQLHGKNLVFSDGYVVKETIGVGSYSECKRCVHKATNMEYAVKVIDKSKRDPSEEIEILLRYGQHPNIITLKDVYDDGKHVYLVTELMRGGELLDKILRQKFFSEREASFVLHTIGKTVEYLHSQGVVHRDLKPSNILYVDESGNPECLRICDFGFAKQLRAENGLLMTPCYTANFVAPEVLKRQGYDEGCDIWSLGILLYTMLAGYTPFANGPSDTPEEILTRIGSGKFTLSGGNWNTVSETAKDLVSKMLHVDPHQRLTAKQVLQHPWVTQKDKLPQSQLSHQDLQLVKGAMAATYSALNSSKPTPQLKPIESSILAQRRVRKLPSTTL
UniProt P23443: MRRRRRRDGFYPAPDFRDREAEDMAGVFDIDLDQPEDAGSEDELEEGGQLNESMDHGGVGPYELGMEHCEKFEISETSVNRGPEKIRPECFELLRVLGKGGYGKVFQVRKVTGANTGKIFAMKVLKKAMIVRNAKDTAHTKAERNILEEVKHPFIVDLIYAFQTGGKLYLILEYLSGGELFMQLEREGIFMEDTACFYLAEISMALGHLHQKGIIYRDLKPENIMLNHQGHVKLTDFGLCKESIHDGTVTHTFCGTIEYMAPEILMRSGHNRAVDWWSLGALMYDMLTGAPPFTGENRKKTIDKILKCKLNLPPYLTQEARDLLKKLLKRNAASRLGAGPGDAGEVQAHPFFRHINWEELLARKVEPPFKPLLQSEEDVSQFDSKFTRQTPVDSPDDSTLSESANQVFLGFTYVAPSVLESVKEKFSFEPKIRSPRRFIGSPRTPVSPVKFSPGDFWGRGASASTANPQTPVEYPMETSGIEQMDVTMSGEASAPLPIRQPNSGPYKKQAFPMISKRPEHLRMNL
UniProt P10155: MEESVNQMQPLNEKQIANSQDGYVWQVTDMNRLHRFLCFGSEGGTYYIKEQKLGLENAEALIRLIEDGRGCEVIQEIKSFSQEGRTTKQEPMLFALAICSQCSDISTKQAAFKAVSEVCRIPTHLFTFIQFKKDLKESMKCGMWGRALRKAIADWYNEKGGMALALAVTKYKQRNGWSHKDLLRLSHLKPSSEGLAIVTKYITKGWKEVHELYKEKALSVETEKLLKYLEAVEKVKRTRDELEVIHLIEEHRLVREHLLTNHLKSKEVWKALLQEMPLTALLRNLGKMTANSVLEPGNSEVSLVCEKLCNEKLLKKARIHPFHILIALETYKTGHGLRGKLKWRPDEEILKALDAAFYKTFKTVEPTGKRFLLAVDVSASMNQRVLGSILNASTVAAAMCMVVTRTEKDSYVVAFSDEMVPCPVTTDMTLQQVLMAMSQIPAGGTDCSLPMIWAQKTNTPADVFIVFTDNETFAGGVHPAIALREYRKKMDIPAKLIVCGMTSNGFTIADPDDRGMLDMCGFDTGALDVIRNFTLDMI
UniProt Q96S38: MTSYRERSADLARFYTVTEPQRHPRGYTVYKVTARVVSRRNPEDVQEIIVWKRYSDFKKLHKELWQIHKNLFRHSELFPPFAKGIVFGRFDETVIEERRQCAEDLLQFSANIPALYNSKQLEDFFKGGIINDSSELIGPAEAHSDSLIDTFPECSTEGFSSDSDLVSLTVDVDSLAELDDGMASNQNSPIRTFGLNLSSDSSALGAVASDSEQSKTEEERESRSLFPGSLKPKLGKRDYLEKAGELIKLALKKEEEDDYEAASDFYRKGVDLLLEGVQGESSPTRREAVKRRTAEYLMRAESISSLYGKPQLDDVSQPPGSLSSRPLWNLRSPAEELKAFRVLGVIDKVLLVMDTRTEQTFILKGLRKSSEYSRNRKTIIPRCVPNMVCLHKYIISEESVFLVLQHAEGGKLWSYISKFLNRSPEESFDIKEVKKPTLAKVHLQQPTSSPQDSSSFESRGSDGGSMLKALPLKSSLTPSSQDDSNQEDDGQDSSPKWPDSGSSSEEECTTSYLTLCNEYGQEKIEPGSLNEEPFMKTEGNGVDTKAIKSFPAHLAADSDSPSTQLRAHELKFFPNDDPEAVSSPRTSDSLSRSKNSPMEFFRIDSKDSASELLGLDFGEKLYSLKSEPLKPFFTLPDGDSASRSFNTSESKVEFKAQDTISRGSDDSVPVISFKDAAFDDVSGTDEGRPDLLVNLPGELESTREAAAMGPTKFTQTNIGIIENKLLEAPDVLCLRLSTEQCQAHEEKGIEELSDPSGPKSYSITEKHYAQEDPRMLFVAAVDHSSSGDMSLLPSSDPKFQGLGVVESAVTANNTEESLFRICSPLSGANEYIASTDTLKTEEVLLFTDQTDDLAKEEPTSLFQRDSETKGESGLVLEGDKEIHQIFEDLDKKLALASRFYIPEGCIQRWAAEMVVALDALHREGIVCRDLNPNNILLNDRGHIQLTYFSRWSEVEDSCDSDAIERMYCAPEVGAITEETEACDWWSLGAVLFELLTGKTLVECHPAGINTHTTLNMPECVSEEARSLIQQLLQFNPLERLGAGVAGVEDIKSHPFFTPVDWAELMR

The targets below were run with C#Cc1cccc(Nc2ncnc3cc(OCCOC)c(OCCOC)cc23)c1 [erlotinib] (assay: log2 fold change, soluble protein after heating vs DMSO (PISA); higher = thermal stabilisation; K562 cells, 10 uM, 30 min; active = over 0.2 and 3.5 SD of the protein, either way, in both replicates (recomputed)).
Outline: (§1)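 Soluble protein was defined as the supernatant after 21,000xg for 90 min. It came from K562 cells at 2×10^6 cells/mL given 10 μM compound for 30 min, heated in aliquots for 3 min across 48°C-58°C, pooled, and extracted in PBS with 0.5% NP-40 at 4°C, and was quantified by TMTpro 16plex LC-MS/MS with equalised channel sums. Thermal stability against control samples, from duplicates, is reported as log2 fold change.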

log2 fold change, inactive:
RPP21 isoform 4 (UniProt Q9H633) -0.063
RPS4X (UniProt P62701) -0.177
RPS24 isoform 4 (UniProt P62847) -0.152
RPL23A (UniProt P62750) -0.225
RPS19 (UniProt P39019) -0.141
RPA2 isoform 3 (UniProt P15927) -0.017
RNF34 isoform 2 (UniProt Q969K3) 0
RPL3 (UniProt P39023) -0.538
RPL35 (UniProt P42766) -0.235
RNPS1 (UniProt Q15287) 0.008
RRAGB (UniProt Q5VZM2) -0.028
RNF7 (UniProt Q9UBF6) -0.001
RPN1 (UniProt P04843) 0
RPL8 (UniProt P62917) -0.595
RPL19 (UniProt P84098) -0.303
RPS17 (UniProt P08708) -0.145
RPS27A (UniProt P62979) -0.246

These targets were tested with C/C(=N\NC(=O)C1=CC(=CC=C1)S(=O)(=O)N2CCOCC2)/C3=C(C=CC(=C3)Cl)O in the same assay as above.
Outline: as §1

log2 fold change, inactive:
RPLP2 (UniProt P05387) -0.276
RPP38 (UniProt P78345) -0.024
RPL29 (UniProt P47914) -0.308
RPL36 (UniProt Q9Y3U8) -0.335
RPS18 (UniProt P62269) -0.088
RPS3 (UniProt P23396) -0.072
RPL3L (UniProt Q92901) -0.28
RPTOR (UniProt Q8N122) 0.075
RPL10 (UniProt P27635) -0.188
RNH1 (UniProt P13489) 0.072
RPA1 (UniProt P27694) 0.07
RPP30 isoform 2 (UniProt P78346) -0.085
RPS6KA1 isoform 2 (UniProt Q15418) 0.104
RNPEP (UniProt Q9H4A4) 0.053
RPS6KB1 (UniProt P23443) 0.024
RPL18A (UniProt Q02543) -0.34
RO60 (UniProt P10155) 0.005
RPS3A (UniProt P61247) -0.041
RPS6KA2 isoform 2 (UniProt Q15349) 0.092
RPL28 (UniProt P46779) -0.355
RPS12 (UniProt P25398) -0.082
RPS6KC1 (UniProt Q96S38) 0.035
RNMT isoform 2 (UniProt O43148) -0.093
RPP21 isoform 4 (UniProt Q9H633) 0.12
RPS4X (UniProt P62701) -0.092
RPS24 isoform 4 (UniProt P62847) -0.138
RPL23A (UniProt P62750) -0.144
RPS19 (UniProt P39019) -0.102
RPA2 isoform 3 (UniProt P15927) -0.038
RNF34 isoform 2 (UniProt Q969K3) -0.106
RPL3 (UniProt P39023) -0.364
RPL35 (UniProt P42766) -0.248
RNPS1 (UniProt Q15287) 0.194
RRAGB (UniProt Q5VZM2) 0.047
RNF7 (UniProt Q9UBF6) 0.1
RPN1 (UniProt P04843) 0.014
RPL8 (UniProt P62917) -0.514
RPL19 (UniProt P84098) -0.192
RPS17 (UniProt P08708) -0.083
RPS27A (UniProt P62979) -0.143
